Record: PubChem BioAssay AID602196 (INSERM, 2012)

Aim: 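Knock-downs that protect lung cancer cells from cisplatin or sensitise them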
Cells: human A549 lung cancer cells
Reagents: siRNA pair against human genes
Duration: 48 h transfection before cisplatin; time from cisplatin to read-out not stated
Conditions: cisplatin at a dose killing half of control-siRNA cells; exact dose and duration not given
Read-out: 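Shift in cisplatin death relative to control siRNA, from -50 (all cells die) to +50 (no cells die); siRNAs harmful on their own scored 0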
Scale: two-siRNA summed score (-2 to +2): higher = both siRNAs protect from cisplatin killing; -2 means both sensitise; mean protection from cisplatin (shift in death) and protection from cisplatin (shift in death), siRNA C: higher = protection from cisplatin killing
Rule for the call: 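Each siRNA scores 0 if harmful alone by LDH or WST-1, otherwise +1 if it reduces and -1 if it increases cisplatin killing; a gene is active when both siRNAs agree (sum +2 or -2)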
Meaning of the calls: active = both siRNAs shift cisplatin killing the same way; inactive = no consistent shift, or siRNA harmful alone
The whole screen tested about 23,000 reagents; this is an unselected part. In the full data, 455 (2%) got an active call. 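Active includes both protection and sensitisation; some change values fall well beyond the stated -50 to +50 range.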 A number with no mark means an inactive call. The numbers tell different reagents against one gene apart. Not all columns of the deposit are shown. Reagent sequences are not shown. Not given: the amount of reagent.

| Gene | reagent no. | two-siRNA summed score (-2 to +2) | mean protection from cisplatin (shift in death) (%) | protection from cisplatin (shift in death), siRNA C (%) |
| --- | --- | --- | --- | --- |
| LHX1 (LIM homeobox 1) | 1 | 2 (active) | 23.7 | 24.5 |
| CTAGE15 (CTAGE family member 15) | 1 | 0 | 11.2 | 13.9 |
| MICAL2 | 1 | 0 | 4.6 | 2.8 |
| MICAL2 | 2 | 0 | 9.3 | 8.1 |
| PGR (progesterone receptor) | 1 | 0 | 25.5 | -14.3 |
| IKZF1 (IKAROS family zinc finger 1) | 1 | -1 | -9 | -2.2 |
| IKZF1 (IKAROS family zinc finger 1) | 2 | 1 | 20 | 15.3 |
| MBLAC2 (metallo-beta-lactamase domain containing 2) | 1 | 1 | 9.4 | 3.6 |
| ERG (ETS transcription factor ERG) | 1 | -1 | 8.2 | 30.5 |
| OR1E2 (olfactory receptor family 1 subfamily E member 2) | 1 | 1 | 15.1 | 7.1 |
| LOC389663 | 1 | 1 | 12.1 | 10.6 |
| FMO1 (flavin containing dimethylaniline monoxygenase 1) | 1 | 0 | -3 | -6.6 |
| MN1 (MN1 proto-oncogene, transcriptional regulator) | 1 | 0 | -1.7 | -5.8 |
| SLC29A3 | 1 | 0 | 11.3 | 9.9 |
| TTLL6 (tubulin tyrosine ligase like 6) | 1 | -1 | -16.5 | -9.9 |
| IL6ST (interleukin 6 cytokine family signal transducer) | 1 | 0 | 3.4 | 8.9 |
| DENND5B (DENN domain containing 5B) | 1 | 0 | -0.7 | 10.1 |
| LOC441180 | 1 | 0 | 7.2 | 2.8 |
| CAMKV (CaM kinase like vesicle associated) | 1 | 1 | 18 | 27.7 |
| GUSB (glucuronidase beta) | 1 | -1 | -10.7 | -11.1 |
| PAG1 | 1 | 0 | 8.8 | 8.6 |
| HTRA3 (HtrA serine peptidase 3) | 1 | 0 | 9.1 | 15.5 |
| DCP2 (decapping mRNA 2) | 1 | 0 | 0.1 | -4.7 |
